# Measured values: the supplement of paper PMC9135407
# “And” between values parts separate entries of the source, which are not always exact repeats. Identical values can stand only once. Counter-ions that a name gives are not always drawn. ± gives the standard deviation of the averaged measurements. Some of the results follow. Baselines shift from plate to plate; read single values as rough.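 Primary human stellate myofibroblasts activated in culture; inactivation shown by regained lipid droplets. Readout: fraction of Hoechst-counted cells exceeding a per-plate Bodipy threshold, duplicate wells, each plate with DMSO negative and nortriptyline positive controls. Hits: control-normalized score beyond the plate's top-tenth-percentile nortriptyline wells, or among its three best wells. Final well concentrations unstated.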
# Tested on: primary human hepatic stellate cells (donor 1)
# Assay: percent Bodipy-positive cells; higher = more lipid droplet accumulation
# Settings: 48 h
# Procedure: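 Primary lipid accumulation screen in primary human hepatic stellate cell myofibroblasts (donor 1, passage 8) in 384-well plates. 100 nL of library compound was pin-transferred into 30 µL medium in duplicate, and cells were treated for 48 h. The 'Scaled' score combines distance from plate baseline, toxicity and reproducibility penalties, and is normalised to nortriptyline (positive) and DMSO (negative) controls on each plate. A hit is defined as scaled >0.85 or among the top 3 wells per plate.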
# [1] = library stock concentration: 10 mM
# [2] = library stock concentration: 80 uM
# [3] = library stock concentration: 400 uM
# [4] = library stock concentration: 2 mM
# [5] = library stock concentration: 3.33 mM
# [6] = library stock concentration: 6.8 mM
smiles,measurement,setting,value
CC(C)NCC(O)COc1ccccc1-n1cccc1 (stereo not drawn) [Isamoltane hemifumarate],percent Bodipy-positive cells,[1],26.5 ± 5.1%
C=CC(=O)Nc1cc2c(Nc3ccc(F)c(Cl)c3)ncnc2cc1OCCCN1CCOCC1,percent Bodipy-positive cells,[2],17.8 ± 0.18%
same,percent Bodipy-positive cells,[3],17.4% and 19%
same,percent Bodipy-positive cells,[4],22.4% and 27.1%
same,percent Bodipy-positive cells,[1],94.5 ± 7.7%
O=C(NCc1ccccc1)c1csc(Nc2ccncn2)n1 [Thiazovivin],percent Bodipy-positive cells,[5],9.4 ± 1.3%
same,percent Bodipy-positive cells,[1],54.6 ± 4.1%
CCCCCCCCCCCCCCCCCCN(CCCCCCCCCCCCCCCCCC)CCCN(CCO)CCO [Avridine],percent Bodipy-positive cells,[1],28.1 ± 7.5%
CNCc1ccc(-c2cc(-c3nc(-c4ccc(S(=O)(=O)C(C)C)cc4)cnc3N)on2)cc1,percent Bodipy-positive cells,[1],98.21 ± 0.14%
CN1CCN(CCCN2c3ccccc3Sc3ccc(C(F)(F)F)cc32)CC1 [Trifluoperazine dihydrochloride],percent Bodipy-positive cells,,60 ± 2.6%
CN1CCN(CCCN2c3ccccc3Sc3ccc(C(F)(F)F)cc32)CC1,percent Bodipy-positive cells,[1],95.51 ± 0.35%
CN1CCN(CCCN2c3ccccc3Sc3ccc(C(F)(F)F)cc32)CC1 [Trifluoperazine],percent Bodipy-positive cells,library stock concentration: 4.9 mM,37.7 ± 2.9%
CN1CCN(CCCN2c3ccccc3Sc3ccc(C(F)(F)F)cc32)CC1 [Trifluoperazine 2HCl],percent Bodipy-positive cells,[5],30.6 ± 7.5%
same,percent Bodipy-positive cells,[1],98.92 ± 0.61%
CN1CCN(CCCN2c3ccccc3Sc3ccc(C(F)(F)F)cc32)CC1 [Trifluoperazine hydrochloride],percent Bodipy-positive cells,[1],62.3 ± 0.8%
"Nc1ccc2c3c(cccc13)C(=O)NC2=O [4-Amino-1,8-naphthalimide]",percent Bodipy-positive cells,[1],85.4 ± 1.9%
CC(S)C(=O)NCC(=O)O (stereo not drawn) [Tiopronin],percent Bodipy-positive cells,[5],12.3 ± 5.7%
same,percent Bodipy-positive cells,[1],21.7 ± 1.6%
CC(S)C(=O)NCC(=O)O (stereo not drawn),percent Bodipy-positive cells,[1],31.7 ± 5.2%
COc1ccc(OC)c(C(O)CNC(=O)CN)c1 (stereo not drawn) [Pro-Amatine],percent Bodipy-positive cells,[1],22.2 ± 8.6%
COc1ccc(OC)c(C(O)CNC(=O)CN)c1 (stereo not drawn) [Midodrine hydrochloride],percent Bodipy-positive cells,,35.1 ± 8.8%
same,percent Bodipy-positive cells,library stock concentration: 6.9 mM,10.4 ± 0.93%
same,percent Bodipy-positive cells,[1],40.3 ± 5.9%
CN(C)CCN1C(=O)c2ccccc2N(C)c2ccccc21 [Dibenzepine HCl],percent Bodipy-positive cells,[6],14.5 ± 8%
CC(=O)NS(=O)(=O)c1ccc(NC(=O)c2ccccc2C(=O)O)cc1,percent Bodipy-positive cells,[1],39.8 ± 13%
CN1CCC(NC(=O)C2=CC(=C3C(O)=CC(=O)C=C3Oc3ccc([N+](=O)[O-])cc3)ON2)CC1,percent Bodipy-positive cells,[1],93.2 ± 1.4%
CC[C@H](C)[C@H](N)C1=N[C@H](C(=O)N[C@@H](CC(C)C)C(=O)N[C@H](CCC(=O)O)C(=O)N[C@H](C(=O)N[C@H]2CCCCNC(=O)[C@H](CC(N)=O)NC(=O)[C@@H](CC(=O)O)NC(=O)[C@H](Cc3cnc[nH]3)NC(=O)[C@@H](Cc3ccccc3)NC(=O)[C@H]([C@@H](C)CC)NC(=O)[C@@H](CCCN)NC2=O)[C@@H](C)CC)CS1 [Bacitracin],percent Bodipy-positive cells,,8.35 ± 0.68%
same,percent Bodipy-positive cells,library stock concentration: 1.4 mM,4.39 ± 0.19%
same,percent Bodipy-positive cells,[5],9.17 ± 1.9%
same,percent Bodipy-positive cells,[1],28.6% and 13.5%
CCCCCCCCCCCCCCCCOCC(CO)OC (stereo not drawn) [1-Hexadecyl-2-O-methyl-glycerol],percent Bodipy-positive cells,library stock concentration: 1 mM,8.53 ± 2.4%
O=C(CCc1ccc(O)cc1)c1c(O)cc(O)cc1O [Phloretin],percent Bodipy-positive cells,[5],7.33 ± 1.1%
same,percent Bodipy-positive cells,[1],22.4% and 18.3%
OC(CNCC(O)C1CCc2cc(F)ccc2O1)C1CCc2cc(F)ccc2O1 (stereo not drawn) [Nebivolol],percent Bodipy-positive cells,[5],69.7 ± 14%
same,percent Bodipy-positive cells,[1],83.7 ± 11%
CN(CC(=O)N(Cc1ccc(C2CCCCC2)cc1)c1ccc(C(=O)O)cc1)S(=O)(=O)c1c(F)c(F)c(F)c(F)c1F,percent Bodipy-positive cells,[5],49 ± 1.4%
same,percent Bodipy-positive cells,[1],100%
Oc1c(I)cc(Cl)c2cccnc12 [Clioquinol],percent Bodipy-positive cells,,6.56 ± 1.7%
C[C@@H](O)[C@H]1C(=O)N2C(C(=O)O)=C(S[C@@H]3CN[C@H](CNS(N)(=O)=O)C3)[C@H](C)[C@H]12 [Doripenem Hydrate],percent Bodipy-positive cells,[5],9.01 ± 2.4%
same,percent Bodipy-positive cells,[1],10.6 ± 0.87%
"COc1cc2nccc(Oc3ccc(NC(=O)Nc4cc(C)on4)c(Cl)c3)c2cc1OC [AV951 (KRN951, Tivozanib) (10 mM)]",percent Bodipy-positive cells,[1],63.7 ± 8.3%
COc1cc2nccc(Oc3ccc(NC(=O)Nc4cc(C)on4)c(Cl)c3)c2cc1OC [VEGFR Tyrosine Kinase Inhibitor IV],percent Bodipy-positive cells,[5],12.7 ± 1.3%
COc1cc2nccc(Oc3ccc(NC(=O)Nc4cc(C)on4)c(Cl)c3)c2cc1OC [Tivozanib (AV-951)],percent Bodipy-positive cells,[5],13.6 ± 0.69%
same,percent Bodipy-positive cells,[1],34.3 ± 5.4%
"COc1cc2nccc(Oc3ccc(NC(=O)Nc4cc(C)on4)c(Cl)c3)c2cc1OC [AV951 (KRN951, Tivozanib) (0.4 mM)]",percent Bodipy-positive cells,[3],14.9 ± 5.7%
"COc1cc2nccc(Oc3ccc(NC(=O)Nc4cc(C)on4)c(Cl)c3)c2cc1OC [AV951 (KRN951, Tivozanib) (2 mM)]",percent Bodipy-positive cells,[4],30.3 ± 15%
COc1cc2nccc(Oc3ccc(NC(=O)Nc4cc(C)on4)c(Cl)c3)c2cc1OC,percent Bodipy-positive cells,[2],6.57 ± 1.5%
same,percent Bodipy-positive cells,[3],7.53 ± 4.1%
same,percent Bodipy-positive cells,[4],12.5 ± 1.4%
same,percent Bodipy-positive cells,[1],34.9 ± 5.4%
CC(C)(C#N)c1cc(Cn2cncn2)cc(C(C)(C)C#N)c1 [Anastrozole],percent Bodipy-positive cells,[5],5.57 ± 0.41%
same,percent Bodipy-positive cells,[6],7.2 ± 1.2%
same,percent Bodipy-positive cells,[1],18.4 ± 10%
CC(C)(C#N)c1cc(Cn2cncn2)cc(C(C)(C)C#N)c1,percent Bodipy-positive cells,[1],7.9 ± 4.5%
C(=C/CCN(C)C)(/c1c2cccc1)\c3c(cccc3)CC2.Cl [Amitriptyline hydrochloride],percent Bodipy-positive cells,[1],97.7 ± 0.98%
CCCCCCCCCCCCCCC[C@H](O)[C@H](N)CO (racemic) [DL-erythro-Dihydrosphingosine],percent Bodipy-positive cells,[1],100%
"COC(=O)/C=C/c1cc(O)ccc1O [Methyl 2,5-dihydroxycinnamate]",percent Bodipy-positive cells,[1],20.2 ± 3.1%
CC(=O)c1ccc2c(c1)N(CCCN(C)C)c1ccccc1S2 [Acetopromazine maleate salt],percent Bodipy-positive cells,,71.6 ± 2%
